This experiment addresses Coronin 1B-GFP fusion protein (UniProt Q9BR76). As to the kind of experiment: co-IP; GFP-Trap beads with 2500 μg lysate of HMECs stably expressing Coro1B-GFP or GFP (control), 2 h at 4°C; lysis buffer with 150 mM sodium chloride, 1% Triton-X 100, 1% sodium deoxycholate; Western blot for Coro1B and ILK.

Protein sequences, listed by entry. Tags and fused reporters are not part of them.
UniProt Q9BR76: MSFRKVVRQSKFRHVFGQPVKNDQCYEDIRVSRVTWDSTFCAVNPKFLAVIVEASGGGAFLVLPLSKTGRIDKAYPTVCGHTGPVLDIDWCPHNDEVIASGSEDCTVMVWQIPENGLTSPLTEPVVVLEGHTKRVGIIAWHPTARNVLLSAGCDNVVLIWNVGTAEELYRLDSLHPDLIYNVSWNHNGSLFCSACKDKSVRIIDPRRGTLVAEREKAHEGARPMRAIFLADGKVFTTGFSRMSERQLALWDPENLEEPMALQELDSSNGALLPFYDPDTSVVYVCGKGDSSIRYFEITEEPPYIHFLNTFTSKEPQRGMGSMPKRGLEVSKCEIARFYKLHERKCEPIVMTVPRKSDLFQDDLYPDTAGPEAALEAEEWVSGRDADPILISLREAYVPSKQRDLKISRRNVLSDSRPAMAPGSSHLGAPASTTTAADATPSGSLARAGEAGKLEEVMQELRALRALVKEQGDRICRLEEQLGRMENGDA
UniProt Q13418: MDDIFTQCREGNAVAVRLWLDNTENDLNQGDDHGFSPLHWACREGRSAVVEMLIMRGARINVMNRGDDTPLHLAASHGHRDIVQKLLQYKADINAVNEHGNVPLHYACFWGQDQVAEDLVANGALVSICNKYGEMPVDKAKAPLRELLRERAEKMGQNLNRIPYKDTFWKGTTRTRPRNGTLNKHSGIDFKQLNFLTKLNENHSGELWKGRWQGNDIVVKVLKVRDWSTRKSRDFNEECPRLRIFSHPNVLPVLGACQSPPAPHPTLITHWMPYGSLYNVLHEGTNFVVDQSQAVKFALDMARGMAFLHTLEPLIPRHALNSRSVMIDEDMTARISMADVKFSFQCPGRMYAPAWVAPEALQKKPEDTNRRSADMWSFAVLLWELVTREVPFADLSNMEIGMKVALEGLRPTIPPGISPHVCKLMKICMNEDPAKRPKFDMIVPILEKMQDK

These results are taken from publication PMC7411154.

These are yes or no findings as the source states them, for the method shown. Binding seen in cells or lysates may run through a third protein. Some results given as binding are weak or reduced against the parent protein; the word gives no strength.

With “integrin-linked kinase (ILK) (from UniProt Q13418 1-452)”, the binding result is listed as “binds”.
